In US5534494A, “Polypeptide compounds having growth hormone releasing activity” (Polygen Holding Corporation, priority 1994, dated 1996):
Part of at least one peptide drawing is inferred or uncertain, most often the ends. Square brackets hold non-standard residues; d marks the D form. Peptide text beside a SMILES is read from it.

Tested on: GH release
Assay: In vivo GH release in unanesthetized rats, single peptides and combinations (synergistic effects)
Conditions: single compound, dose 10 μg, control 12 ± 3

Structure (SMILES): N=C(N)NCCC[C@@H](NC(=O)[C@@H](N)Cc1ccc(O)cc1)C(=O)N[C@@H](Cc1ccccc1)C(=O)NCC(N)=O [Group 3 Compound, Tyr--DArg--Phe--Gly--NH2] (H-Y[dR]FG-NH2)
- GH Released: 79 ± 29 mg/mL
